Data as given in PubChem BioAssay AID1259254 (NCATS, 2017).
Purpose: 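Genome-wide screen for genes that prevent DNA re-replication in cancer cells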 (primary screen). Cell system: human HCT116 colorectal cancer cells. Reagent: single siRNA against human genes. Timing: 3 days. Read-out: 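Imaged Hoechst DNA stain sorts each cell into a cycle phase by DNA amount; per plate, G2 fraction set to 0% for non-targeting and 100% for GMNN siRNA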. Reading the numbers: G2 robust z-score and G2 cells, % of GMNN control: higher = more G2 cells, more excess DNA replication. Call rule: 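An siRNA counts as active if its G2 robust z-score lies at least 5 MADs above the screen median; here such calls match roughly 38% of GMNN control or more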.
This is one part, drawn at random, of about 59,000 deposited reagents. In the full data, about 1,550 (2.6%) got an active call. 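G2 share is only a proxy for re-replication; each gene was hit by three separate siRNAs, and active genes were retested.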 Entries without a mark were called inactive. Further read-outs or replicates are left out here. No sequences are given here. Not stated in the record: the amount of reagent.

| target gene | PubChem SID | G2 robust z-score | G2 cells, % of GMNN control |
| --- | --- | --- | --- |
| KRTAP3-1 (GeneID 83896) | SID160751522 | 0.718 | 8.02 |
| KRTAP3-1 (GeneID 83896) | SID160751523 | -0.708 | -2.02 |
| KRTAP3-1 (GeneID 83896) | SID160751524 | 0.152 | 4.04 |
| COL14A1 (GeneID 7373) | SID160718626 | 0.298 | 5.06 |
| COL14A1 (GeneID 7373) | SID160718627 | -0.271 | 1.06 |
| COL14A1 (GeneID 7373) | SID160718628 | 0.0464 | 3.29 |
| IQCH (GeneID 64799) | SID160748013 | -0.31 | 0.788 |
| IQCH (GeneID 64799) | SID160748014 | -0.764 | -2.41 |
| IQCH (GeneID 64799) | SID160748015 | 0.881 | 9.17 |
| SPMIP3 (GeneID 200159) | SID160732647 | 0.27 | 4.87 |
| SPMIP3 (GeneID 200159) | SID160760815 | -0.398 | 0.166 |
| SPMIP3 (GeneID 200159) | SID160760816 | -0.147 | 1.93 |
| DOK7 (GeneID 285489) | SID160733001 | -0.218 | 1.43 |
| DOK7 (GeneID 285489) | SID160763620 | 1.16 | 11.1 |
| DOK7 (GeneID 285489) | SID160763621 | 1.13 | 10.9 |
| OSTM1 (GeneID 28962) | SID160738878 | -0.195 | 1.6 |
| OSTM1 (GeneID 28962) | SID160738879 | -0.679 | -1.81 |
| OSTM1 (GeneID 28962) | SID160738880 | -0.108 | 2.21 |
| SH2D5 (GeneID 400745) | SID160767032 | 1.54 | 13.8 |
| SH2D5 (GeneID 400745) | SID160767033 | -1.08 | -4.6 |
| SH2D5 (GeneID 400745) | SID160767034 | -0.374 | 0.338 |
| LRRC2 (GeneID 79442) | SID160748869 | -0.167 | 1.79 |
| LRRC2 (GeneID 79442) | SID160748870 | 0.81 | 8.67 |
| LRRC2 (GeneID 79442) | SID160748871 | 0.203 | 4.39 |
| STK39 (GeneID 27347) | SID160738778 | -0.287 | 0.945 |
| STK39 (GeneID 27347) | SID160738779 | -0.193 | 1.61 |
| STK39 (GeneID 27347) | SID160738780 | 3.09 | 24.7 |
| SSR2 (GeneID 6746) | SID160717384 | -1.19 | -5.4 |
| SSR2 (GeneID 6746) | SID160717385 | 0.247 | 4.71 |
| SSR2 (GeneID 6746) | SID160717386 | 0.397 | 5.76 |
| ANO4 (GeneID 121601) | SID160755927 | -0.817 | -2.78 |
| ANO4 (GeneID 121601) | SID160755928 | 1.97 | 16.8 |
| ANO4 (GeneID 121601) | SID160755929 | 0.528 | 6.68 |
| TMEM163 (GeneID 81615) | SID160750891 | -0.85 | -3.01 |
| TMEM163 (GeneID 81615) | SID160750892 | -0.461 | -0.275 |
| TMEM163 (GeneID 81615) | SID160750893 | 0.492 | 6.43 |

Reformatted: results already given
{"target gene":"SH2D5 (GeneID 400745)","PubChem SID":"SID160767032","G2 robust z-score":1.54,"G2 cells, % of GMNN control":13.8}
{"target gene":"SH2D5 (GeneID 400745)","PubChem SID":"SID160767033","G2 robust z-score":-1.08,"G2 cells, % of GMNN control":-4.6}
{"target gene":"SH2D5 (GeneID 400745)","PubChem SID":"SID160767034","G2 robust z-score":-0.374,"G2 cells, % of GMNN control":0.338}
{"target gene":"LRRC2 (GeneID 79442)","PubChem SID":"SID160748869","G2 robust z-score":-0.167,"G2 cells, % of GMNN control":1.79}
{"target gene":"LRRC2 (GeneID 79442)","PubChem SID":"SID160748870","G2 robust z-score":0.81,"G2 cells, % of GMNN control":8.67}

The results go on:
| target gene | PubChem SID | G2 robust z-score | G2 cells, % of GMNN control |
| --- | --- | --- | --- |
| MAPK9 (GeneID 5601) | SID160714998 | -1.82 | -9.87 |
| MAPK9 (GeneID 5601) | SID160714999 | -1.26 | -5.88 |
| MAPK9 (GeneID 5601) | SID160715001 | -0.73 | -2.17 |
| ZNF134 (GeneID 7693) | SID160719155 | -0.704 | -1.99 |
| ZNF134 (GeneID 7693) | SID160719156 | -0.195 | 1.59 |
| ZNF134 (GeneID 7693) | SID160719158 | -0.416 | 0.0432 |
| LOC730179 (retired record) (GeneID 730179) | SID160773596 | 0.142 | 3.97 |
| LOC730179 (retired record) (GeneID 730179) | SID160773597 | -0.0612 | 2.54 |
| LOC730179 (retired record) (GeneID 730179) | SID160773598 | 0.799 | 8.59 |
| CNPY1 (GeneID 285888) | SID160763739 | -0.01 | 2.9 |
| CNPY1 (GeneID 285888) | SID160763740 | -0.255 | 1.17 |
| CNPY1 (GeneID 285888) | SID160763741 | -0.23 | 1.35 |
| SYF2 (GeneID 25949) | SID160737322 | -0.118 | 2.14 |
| SYF2 (GeneID 25949) | SID160737323 | -0.135 | 2.02 |
| SYF2 (GeneID 25949) | SID160737324 | 0.15 | 4.02 |
| TMPRSS11A (GeneID 339967) | SID160764335 | 0.813 | 8.69 |
| TMPRSS11A (GeneID 339967) | SID160764336 | -0.777 | -2.5 |
| TMPRSS11A (GeneID 339967) | SID160764337 | 0.0817 | 3.54 |
| NXT2 (GeneID 55916) | SID160744641 | 0.614 | 7.28 |
| NXT2 (GeneID 55916) | SID160744642 | 1.44 | 13.1 |
| NXT2 (GeneID 55916) | SID160744643 | 1.58 | 14.1 |
| SAP18 (GeneID 10284) | SID160728075 | -0.239 | 1.29 |
| SAP18 (GeneID 10284) | SID160728076 | 5.17 (active) | 39.3 |
| SAP18 (GeneID 10284) | SID160728079 | 1.97 | 16.8 |
| AGGF1 (GeneID 55109) | SID160742960 | 2.38 | 19.7 |
| AGGF1 (GeneID 55109) | SID160742962 | -0.725 | -2.13 |
| AGGF1 (GeneID 55109) | SID160742963 | 0.513 | 6.58 |
| HIKESHI (GeneID 51501) | SID160740895 | 0.837 | 8.85 |
| HIKESHI (GeneID 51501) | SID160740896 | -0.228 | 1.36 |
| HIKESHI (GeneID 51501) | SID160740897 | -1.04 | -4.33 |
| VPS37C (GeneID 55048) | SID160742818 | 4.09 | 31.7 |
| VPS37C (GeneID 55048) | SID160742819 | -0.501 | -0.559 |
| VPS37C (GeneID 55048) | SID160742821 | -0.851 | -3.02 |
